The values below come from patent US20220048993A1.

No constants are given. Whether binding was seen depends on the method and setting. Some results given as binding are weak or reduced against the parent protein; the word gives no strength.

Assay [1] addresses T1, soluble human FcRH5 protein fragment (human) (UniProt Q96RD9).
T1 sequence: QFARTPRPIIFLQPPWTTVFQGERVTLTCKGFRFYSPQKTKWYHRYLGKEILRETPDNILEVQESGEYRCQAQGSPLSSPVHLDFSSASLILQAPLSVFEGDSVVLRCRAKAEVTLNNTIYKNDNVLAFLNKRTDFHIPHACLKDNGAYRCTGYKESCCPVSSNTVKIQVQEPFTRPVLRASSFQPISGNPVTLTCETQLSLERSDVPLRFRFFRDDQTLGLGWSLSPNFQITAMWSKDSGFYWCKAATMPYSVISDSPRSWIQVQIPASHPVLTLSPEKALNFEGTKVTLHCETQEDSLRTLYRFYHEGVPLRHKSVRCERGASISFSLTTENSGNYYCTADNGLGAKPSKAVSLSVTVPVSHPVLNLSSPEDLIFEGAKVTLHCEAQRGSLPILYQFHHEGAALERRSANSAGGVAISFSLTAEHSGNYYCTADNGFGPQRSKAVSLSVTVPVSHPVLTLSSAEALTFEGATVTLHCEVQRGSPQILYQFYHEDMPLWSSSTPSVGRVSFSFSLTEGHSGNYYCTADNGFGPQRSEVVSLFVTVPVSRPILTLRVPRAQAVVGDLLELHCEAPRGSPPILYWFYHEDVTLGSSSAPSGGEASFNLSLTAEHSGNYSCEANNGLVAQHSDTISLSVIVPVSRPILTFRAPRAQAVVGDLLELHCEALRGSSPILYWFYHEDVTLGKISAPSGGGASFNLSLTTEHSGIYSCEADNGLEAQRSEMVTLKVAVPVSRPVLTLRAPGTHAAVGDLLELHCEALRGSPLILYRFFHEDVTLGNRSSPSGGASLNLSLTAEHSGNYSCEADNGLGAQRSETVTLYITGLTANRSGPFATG
Nature of the assay: BIACORE, TDB stressed with AAPH or light. In general terms: SPR reads the build-up and loss of mass on a sensor chip optically.

Assay [2] has as its target T1, soluble human FcRH5 protein fragment (human). Nature of the assay: BIACORE (FIG. 15).
The target is the same in assay [3]. Nature of the assay: ELISA. (In general: An ELISA detects its analyte on a solid surface through an enzyme-linked reagent.)

B1: 1G7.v85/38E4.v1 TDB (bispecific antibody, V domains shown)
VH 1: EVQLVESGPGLVKPSETLSLTCTVSGFSLTRFGVHWVRQPPGKGLEWLGVIWRGGSTDYNAAFVSRLTISKDNSKNQVSLKLSSVTAADTAVYYCSNHYYGSSDYALDNWGQGTLVTVSS
VL 1: DIQMTQSPSSLSASVGDRVTITCKASQDVRNLVVWFQQKPGKAPKLLIYSGSYRYSGVPSRFSGSGSGTDFTLTISSLQPEDFATYYCQQHYSPPYTFGQGTKVEIK
VH 2: EVQLVQSGAEVKKPGASVKVSCKASGFTFTSYYIHWVRQAPGQGLEWIGWIYPENDNTKYNEKFKDRVTITADTSTSTAYLELSSLRSEDTAVYYCARDGYSRYYFDYWGQGTLVTVSS
VL 2: DIVMTQSPDSLAVSLGERATINCKSSQSLLNSRTRKNYLAWYQQKPGQSPKLLIYWTSTRKSGVPDRFSGSGSGTDFTLTISSLQAEDVAVYYCKQSFILRTFGQGTKVEIK
B1: the binding entry in assay [1] and in assay [2] was “binds” throughout.

B2: F(ab′)2 A (bispecific antibody, V domains shown)
VH 1: B1 VH 1
VL 1: B1 VL 1
VH 2: B1 VH 2
VL 2: B1 VL 2
modifications: hinge Cys crosslinked
As for B2, the binding result in assay [3] is listed as “binds”.
